From PMC4413655
No constants are given. Whether binding was seen depends on the method and setting. In cells and extracts the contact can be indirect. Some binding calls cover weakened binding; strength is not graded here. For part of these data: Where a sequence is shown, tags or fusion partners need not be part of it.

By UniProt entry, the sequences of proteins in these tests, tags left out.
UniProt P42224: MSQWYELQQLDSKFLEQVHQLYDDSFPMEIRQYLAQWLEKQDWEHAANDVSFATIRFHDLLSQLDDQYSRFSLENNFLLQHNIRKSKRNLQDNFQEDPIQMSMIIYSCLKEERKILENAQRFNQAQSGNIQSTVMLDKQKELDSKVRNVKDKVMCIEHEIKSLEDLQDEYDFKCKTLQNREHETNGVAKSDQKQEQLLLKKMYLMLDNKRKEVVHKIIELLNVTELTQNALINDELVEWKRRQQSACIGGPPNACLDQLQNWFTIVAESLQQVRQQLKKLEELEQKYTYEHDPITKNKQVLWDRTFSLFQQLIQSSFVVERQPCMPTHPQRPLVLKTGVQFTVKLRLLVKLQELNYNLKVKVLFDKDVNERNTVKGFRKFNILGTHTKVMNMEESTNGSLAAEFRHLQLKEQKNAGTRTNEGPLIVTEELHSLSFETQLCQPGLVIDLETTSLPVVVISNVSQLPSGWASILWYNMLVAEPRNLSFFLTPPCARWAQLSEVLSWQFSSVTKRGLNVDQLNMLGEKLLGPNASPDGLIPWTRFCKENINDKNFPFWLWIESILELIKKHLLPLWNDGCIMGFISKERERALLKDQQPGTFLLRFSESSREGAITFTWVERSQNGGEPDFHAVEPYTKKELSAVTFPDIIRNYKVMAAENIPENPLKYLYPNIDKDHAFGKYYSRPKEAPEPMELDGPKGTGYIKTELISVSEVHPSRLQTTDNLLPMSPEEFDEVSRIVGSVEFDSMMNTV

What was measured:
[1] = target: T1, IFIT3-STrEP-tag fusion protein (IFN-induced protein with tetratricopeptide repeats 3 fused at its C-end to the One-STrEP Tag) (human) (UniProt O14879); test: pull-down; One-STrEP affinity chromatography: lysate of L3.6pl cells transfected with pEXPR-IFIT3 bound on affinity columns, extensively washed, eluted with biotin buffer; fractions analysed by Western blot; empty-vector lysate as negative control
T1 sequence: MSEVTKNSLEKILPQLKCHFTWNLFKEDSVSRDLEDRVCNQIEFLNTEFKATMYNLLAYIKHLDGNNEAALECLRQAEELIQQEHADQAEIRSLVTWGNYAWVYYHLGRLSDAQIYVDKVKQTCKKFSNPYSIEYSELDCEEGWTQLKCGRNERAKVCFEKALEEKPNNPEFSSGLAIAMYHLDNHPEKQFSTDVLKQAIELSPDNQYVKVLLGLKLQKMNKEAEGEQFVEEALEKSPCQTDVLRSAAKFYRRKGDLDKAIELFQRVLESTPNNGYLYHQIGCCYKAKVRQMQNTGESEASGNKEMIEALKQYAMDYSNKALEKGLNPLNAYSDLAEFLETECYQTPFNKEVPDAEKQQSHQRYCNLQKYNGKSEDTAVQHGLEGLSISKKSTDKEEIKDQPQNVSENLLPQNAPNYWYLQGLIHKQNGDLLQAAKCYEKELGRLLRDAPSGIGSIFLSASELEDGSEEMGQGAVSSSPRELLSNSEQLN

[2] = target: Signal Transducers and Activators of Transcription 1 (STAT1) (human (endogenous in L3.6pl)) (UniProt P42224); test: co-IP; immunoprecipitation with anti-JNK and anti-STAT1 antibodies from L3.6pl lysate, Western blot with anti-IFIT3 antibody

With “EGFR (from UniProt P00533 25-1210) (receptor)” the binding [1] was “no binding”.

With “Signal Transducers and Activators of Transcription 1 (STAT1) (from UniProt P42224 1-750)” the binding [1] was “binds”.

B1: IFN-induced protein with tetratricopeptide repeats 3 (IFIT3) (protein, UniProt O14879 1-490)
chain: T1 sequence
B1 was tested, and the binding [2] was “binds”.
